Reference: publication PMC3749933
No constants are given. Whether binding was seen depends on the method and setting. Binding seen in cells or lysates may run through a third protein. Some binding calls cover weakened binding; strength is not graded here. Tags and fused reporters may be left off the sequences shown.

Target: T1, FLAG-tagged CESA9 (rice) (UniProt Q69P51)
T1 sequence: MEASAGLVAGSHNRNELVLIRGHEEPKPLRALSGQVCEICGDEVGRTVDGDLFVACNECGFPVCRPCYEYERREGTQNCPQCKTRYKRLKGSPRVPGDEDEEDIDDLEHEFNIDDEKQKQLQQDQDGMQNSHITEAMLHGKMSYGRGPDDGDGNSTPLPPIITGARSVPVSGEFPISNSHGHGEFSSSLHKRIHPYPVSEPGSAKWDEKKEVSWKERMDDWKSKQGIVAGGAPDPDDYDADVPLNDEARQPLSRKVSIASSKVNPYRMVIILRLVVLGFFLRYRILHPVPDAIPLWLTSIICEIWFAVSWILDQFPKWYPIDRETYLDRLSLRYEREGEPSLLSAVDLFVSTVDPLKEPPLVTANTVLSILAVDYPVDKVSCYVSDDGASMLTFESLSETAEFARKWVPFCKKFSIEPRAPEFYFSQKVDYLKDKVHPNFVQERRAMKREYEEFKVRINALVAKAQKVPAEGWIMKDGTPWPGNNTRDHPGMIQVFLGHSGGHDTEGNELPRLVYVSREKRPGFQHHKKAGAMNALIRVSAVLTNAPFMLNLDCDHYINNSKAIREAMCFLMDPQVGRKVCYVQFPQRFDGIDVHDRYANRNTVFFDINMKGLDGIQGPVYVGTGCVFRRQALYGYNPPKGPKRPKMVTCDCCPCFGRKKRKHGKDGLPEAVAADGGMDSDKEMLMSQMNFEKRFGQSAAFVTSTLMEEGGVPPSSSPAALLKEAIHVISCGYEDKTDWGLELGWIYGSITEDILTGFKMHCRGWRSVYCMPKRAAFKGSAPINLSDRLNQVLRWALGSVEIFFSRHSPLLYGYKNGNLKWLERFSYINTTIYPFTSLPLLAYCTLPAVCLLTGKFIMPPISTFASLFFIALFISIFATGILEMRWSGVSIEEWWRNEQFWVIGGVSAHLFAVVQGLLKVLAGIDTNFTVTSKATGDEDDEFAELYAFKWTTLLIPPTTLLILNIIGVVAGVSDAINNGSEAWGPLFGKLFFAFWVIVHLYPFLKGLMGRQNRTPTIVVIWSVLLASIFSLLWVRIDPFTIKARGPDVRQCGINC
Assay: co-IP; total membrane proteins from young internodes of transgenic rice expressing FLAG-CESA9, incubated with anti-FLAG M2 affinity gel overnight at 4°C; input and output blotted with anti-CESA, anti-BC1 and anti-UGPase antibodies

B1: CESA4 (enzyme, UniProt Q5JN63 1-989)
chain: MMESGVPPCAACGDDAHAACRACSYALCKACLDEDAAEGRTTCARCGGEYGAPDPAHGQGAVVEEEVEESHEPAAGGVRERVTMASQLSDHQDEGVHARTMSTHARTISSVSGVGSELNDESGKPIWKNRVESWKEKKKEKKASAKKAAAKAQAPPVEEQIMDEKDLTDAYEPLSRIIPISKNKLTPYRAVIIMRLVVLGLFFHYRITNPVYSAFGLWMTSVICEIWFGFSWILDQFPKWCPINRETYVDRLIARYGDGEDSGLAPVDFFVSTVDPLKEPPLITANTVLSILAVDYPVEKISCYVSDDGSAMLTFESLAETAEFARRWVPFCKKYSIEPRAPEFYFSQKIDYLKDKIHPSFVKERRAMKRDYEEYKVRINALVAKAQKTPEEGWIMQDGTPWPGNNPRDHPGMIQVFLGETGARDFDGNELPRLVYVSREKRPGYQHHKKAGAMNALVRVSAVLTNAPYILNLDCDHYVNNSKAVREAMCFMMDPSVGRDVCYVQFPQRFDGIDRSDRYANRNVVFFDVNMKGLDGLQGPVYVGTGCCFYRQALYGYGPPSLPALPKSSVCSWCCCCCPKKKAEKSEKEMHRDSRREDLESAIFNLREIDNYDEYERSMLISQMSFEKSFGLSSVFIESTLMENGGVPESANPSTLIKEAIHVISCGYEEKTEWGKEIGWIYGSVTEDILTGFKMHCRGWRSIYCMPIRPAFKGSAPINLSDRLHQVLRWALGSVEIFLSRHCPLWYGYGGGRLKWLQRLSYINTIVYPFTSLPLIAYCCLPAICLLTGKFIIPTLSNAATIWFLGLFISIIVTSVLELRWSGIGIEDWWRNEQFWVIGGVSAHLFAVFQGILKMIAGLDTNFTVTAKATDDTEFGELYVFKWTTVLIPPTSILVLNLVGVVAGFSDALNSGYESWGPLFGKVFFAMWVIMHLYPFLKGLMGRQNRTPTIVVLWSVLLASVFSLLWVKIDPFIGSSETTTTNSCANFDC
B1 was tested, and the binding was “binds”.

B2: CESA7 (enzyme, UniProt Q9AV71 1-1063)
chain: MDTASVTGGEHKGKEKTCRVCGEEVAAREDGKPFVACAECGFPVCKPCYEYERSEGTQCCPQCNTRYKRHKGCPRVEGDEDDGGDMDDFEEEFQIKSPTKQKPPHEPVNFDVYSENGEQPAQKWRPGGPALSSFTGSVAGKDLEQEREMEGGMEWKDRIDKWKTKQEKRGKLNRDDSDDDDDKNDDEYMLLAEARQPLWRKVPIPSSKINPYRIVIVLRLVVLCFFLKFRITTPAMDAVPLWLASVICELWFALSWILDQLPKWSPVTRETYLDRLALRYERDGEPCRLAPIDFFVSTVDPLKEPPIITANTVLSILAVDYPVDRVSCYVSDDGASMLLFDTLSETAEFARRWVPFCKKFTIEPRAPEFYFSQKIDYLKDKVQPTFVKERRAMKREYEEFKVRINALVAKAQKKPEEGWVMQDGTPWPGNNTRDHPGMIQVYLGSQGALDVEGSELPRLVYVSREKRPGYNHHKKAGAMNSLVRVSAVLTNAPFILNLDCDHYVNNSKAVREAMCFLMDKQLGKKLCYVQFPQRFDGIDRHDRYANRNTVFFDINMKGLDGIQGPVYVGTGTVFNRQALYGYDPPRPEKRPKMTCDCWPSWCCCCCCFGGGKRGKSHKNKKGGGGGEGGGLDEPRRGLLGFYKKRSKKDKLGGGAASLAGGKKGYRKHQRGFELEEIEEGLEGYDELERSSLMSQKSFEKRFGQSPVFIASTLVEDGGLPQGAAADPAALIKEAIHVISCGYEEKTEWGKEIGWIYGSVTEDILTGFKMHCRGWKSVYCTPARAAFKGSAPINLSDRLHQVLRWALGSVEIFMSRHCPLWYAYGGRLKWLERFAYTNTIVYPFTSIPLLAYCTIPAVCLLTGKFIIPTLNNLASIWFIALFLSIIATGVLELRWSGVSIEDWWRNEQFWVIGGVSAHLFAVFQGLLKVLGGVDTNFTVTSKAAADETDAFGELYLFKWTTLLVPPTTLIIINMVGIVAGVSDAVNNGYGSWGPLFGKLFFSFWVILHLYPFLKGLMGRQNRTPTIVVLWSILLASIFSLVWVRIDPFIPKPKGPVLKPCGVSC
With B2 the binding was “binds”.

B3: Brittle Culm1 (protein, UniProt Q10JL1 23-443)
chain: YDPLDPKGNITIKWDVISWTPDGYVAMVTMSNYQMYRQILAPGWTVGWSWAKKEVIWSIVGAQATEQGDCSKFKGGIPHSCKRTPAIVDLLPGVPYNQQIANCCKAGVVSAYGQDPAGSVSAFQVSVGLAGTTNKTVKLPTNFTLAGPGPGYTCGPATIVPSTVYLTPDRRRRTQALMTWTVTCTYSQQLASRYPTCCVSFSSFYNSTIVPCARCACGCGHDGYRGNGGGGKNARAGDGRSRRNSGGGGGHSGGTECIMGDSKRALSAGVNTPRKDGAPLLQCTSHMCPIRVHWHVKLNYKDYWRAKIAITNFNYRMNYTQWTLVAQHPNLNNVTEVFSFQYKPLLPYGNINDTGMFYGLKFYNDLLMEAGPFGNVQSEVLMRKDYNTFTFSQGWAFPRKIYFNGDECKMPPPDSYPYLPN
modifications: GPI anchor at the ω-cleavage site; N-glycosylated
In the case of B3, the binding is reported as “no binding”.
